Laboratory results taken from PMC6525185, “6mA-DNA-binding factor Jumu controls maternal-to-zygotic transition upstream of Zelda”.
For part of these data: The comparison behind a weaker result is the experiment's own reference, which may not be listed here. Where a protein sequence is shown, tags need not be part of it. For part of these data: For at least one entry, the source does not settle the construct or the ends of the probe. For part of these data: Results from cells or extracts need not show a direct contact.

How the values were obtained:
Jumu (endogenous) [1] = molecular target: T1, Jumu (endogenous) (UniProt Q7K214); assay: pull-down, western blot; conditions: pull-down: 50 mM Tris-HCl pH 8, 150 mM NaCl, 1 mM DTT, 0.25% NP40; protein in an extract
T1 sequence (looked up, limits assumed): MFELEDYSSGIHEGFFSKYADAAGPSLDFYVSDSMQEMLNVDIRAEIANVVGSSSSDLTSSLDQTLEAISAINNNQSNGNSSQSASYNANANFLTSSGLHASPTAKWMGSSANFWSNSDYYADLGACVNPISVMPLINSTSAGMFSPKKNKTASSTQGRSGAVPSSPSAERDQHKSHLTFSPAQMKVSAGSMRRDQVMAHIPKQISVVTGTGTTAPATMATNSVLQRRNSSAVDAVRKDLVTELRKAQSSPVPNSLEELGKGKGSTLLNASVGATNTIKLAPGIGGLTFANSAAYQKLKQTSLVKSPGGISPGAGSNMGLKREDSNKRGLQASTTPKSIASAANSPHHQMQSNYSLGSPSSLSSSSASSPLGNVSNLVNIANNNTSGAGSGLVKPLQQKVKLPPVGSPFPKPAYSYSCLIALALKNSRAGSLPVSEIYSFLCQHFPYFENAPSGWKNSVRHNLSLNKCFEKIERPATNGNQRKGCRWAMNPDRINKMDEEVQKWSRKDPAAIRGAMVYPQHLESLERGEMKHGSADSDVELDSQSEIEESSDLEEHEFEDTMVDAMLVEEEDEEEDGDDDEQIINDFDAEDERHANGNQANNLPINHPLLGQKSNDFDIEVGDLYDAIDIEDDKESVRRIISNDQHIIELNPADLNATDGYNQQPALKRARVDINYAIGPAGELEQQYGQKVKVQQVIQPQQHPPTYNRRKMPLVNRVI

GST-Jumu FKH domain = molecular target: T2, GST-Jumu FKH domain (UniProt Q7K214); assay: EMSA competition; conditions: 10, 20, 40-fold competitor, 2 µM protein; EMSA: 20 mM HEPES pH 7.5, 50 mM KCl, 1 mM DTT (printed DDT), 1 mM EDTA, 0.01 mg/ml BSA, 2% Ficoll 400, 5 ng/µl poly(dI:dC), 25 °C, 15 nM probe; recombinant protein; residues 391-540; protein details: GST
T2 sequence (looked up): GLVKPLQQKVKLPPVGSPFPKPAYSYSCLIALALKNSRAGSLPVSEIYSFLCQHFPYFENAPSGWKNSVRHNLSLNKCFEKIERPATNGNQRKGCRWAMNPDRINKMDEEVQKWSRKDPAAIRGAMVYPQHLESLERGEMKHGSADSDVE

Jumu (endogenous) [2] = molecular target: T1, Jumu (endogenous); assay: pull-down, western blot and MS; conditions: N6-methyladenine in place of dA, by PCR with dm6ATP (both strands; primer-derived adenines probably unmodified, primers not given); pull-down: 50 mM Tris-HCl pH 8, 150 mM NaCl, 1 mM DTT, 0.25% NP40; protein in an extract

| Sequence | binding result (Jumu (endogenous) [1]) | binding result (GST-Jumu FKH domain) | binding result (Jumu (endogenous) [2]) |
| --- | --- | --- | --- |
| GCTATTTATGCGTTCTTTTCTTCTTTCTCATTTCTATATTTATAGTGTGTGTGTGTGTGTGGGTGTGTTTGTTGTATGTGGTTAAATATGCTTCGTTTTTGTTTAATTGGTTTTTGTTTTTGTGATGATCATGGG (double strand) [dA-dsDNA probe] | binds more weakly | binds more weakly | – |
| GCTATTTATGCGTTCTTTTCTTCTTTCTCATTTCTATATTTATAGTGTGTGTGTGTGTGTGGGTGTGTTTGTTGTATGTGGTTAAATATGCTTCGTTTTTGTTTAATTGGTTTTTGTTTTTGTGATGATCATGGG (double strand) [6mA-dsDNA probe] | – | – | binds |
